These are yes or no findings as the source states them, for the method shown. Binding seen in cells or lysates may run through a third protein. Binding can be weak; no strength is given. Tags and fused reporters may be left off the sequences shown.
Biological target: Cka (epitope-tagged, co-immunoprecipitation in Drosophila cells) (Drosophila)
Test: co-IP; Drosophila S2R+ cells (S2 cells in the legend of Fig. 4D) transfected with epitope-tagged proteins; treatments in some panels: dsRNA against Slmap, Fgop2 or Cka, co-expression of Tak1 or Tak1 S176A, 5Z-7-Oxozeaenol (2 μM, 3 h), LPS (10 μg/mL, 2 h, after 20-Hydroxyecdysone 1 μM, 48 h)

| binding | Binder |
| --- | --- |
| binds | Tak1 (Transforming growth factor-β-activated kinase 1), epitope-tagged (enzyme, UniProt Q9V3Q6 1-678) MATASLDALQAAYVDFSEITLREKVGHGSYGVVCKAVWRDKLVAVKEFFASAEQKDIEKEVKQLSRVKHPNIIALHGISSYQQATYLIMEFAEGGSLHNFLHGKVKPAYSLAHAMSWARQCAEGLAYLHAMTPKPLIHRDVKPLNLLLTNKGRNLKICDFGTVADKSTMMTNNRGSAAWMAPEVFEGSKYTEKCDIFSWAIVLWEVLSRKQPFKGIDNAYTIQWKIYKGERPPLLTTCPKRIEDLMTACWKTVPEDRPSMQYIVGVMHEIVKDYTGADKALEYTFVNQQIVTKESDGTVAAQPDSLSSQEGELSPSSTQLTPTTAANANVNAIAISKTTTSSMTENTSSTSSDITPTNSGQLDNNPLFYMVTNRWDAIPEEESNESRNDSFNLTSSAEATQRLETIRNGMILMACKPMEQLTLDVEANGFDLSPSESSSSSTNAKSDGRERLTVTDTKPVMMTTDLSNNNGGIHAHSNGLLSHANGWQARDEELQEQEHEQEIVNSLDVDVDPDEDENDGTEQSLAEILDPELQPEPPIPNDAESQLIYRDHRHMAKEYLSVDTNLYYAQDFKDKLIVQMDRTEREQKQELLRKMKDKEGLQSLYNNLQQQYASRQLAAGHHPQPHPHPHPNQLQHPHSHPPMHFLQDEGCGLLPGSVCGGSESVEEGWVVIPPHHNA |
| binds | Tao-1 (epitope-tagged, co-immunoprecipitation in S2R+ cells) (protein, UniProt Q0KHQ5 1-1039) MPSARPGSLKDPEIADLFNKHDPEKIFEDLREIGHGSFGAVYYARCNLTREIVAIKKMSYTGKQSQEKWQDILKEIRFLRQLNHPNTIEYKGCYLRESTAWLVMEYCVGSASDIIEVHKKPLHEDEIAAICLGVLSGLSYLHSLGRIHRDIKAGNILLTDNGVVKLADFGSAAIKCPANSFVGTPYWMAPEVILAMDEGQYDGKVDVWSLGITCIELAERKPPYFNMNAMSALYHIAQNESPTLPKNDWSDAFCSFVELCLKKMPAERPSSAKLLTHAYVTRPRSDTVLLELIARTKSAVRELDNLNYRKMKKILMVDTCETESAVGDTDDQQDDHAGGDSSKSNSITSEHSIHSVGVSAASSQSSSSNSIPAAAQNHHHIAAHHHQQAASAAVAAAMHHHHHPHQQPPPSWPSGQQGQPVPPGAVSRNSSRHRNRPPLPNIMHSMNNNVTPTNSASVVPAPAPAPVLPPPISVLPHLSAMGHVGGGGTGTGGSGGGSPASGGPLADRIQPVQPRYLTTPAAQAAVYAASSASSQQAISNAVNDHGPNNFATIRTTSIVTKQQKEHMQEEMHEQMSGYKRMRREHQAHLVKLEEKCKVDMEAHKTALDKEYDTLLHNFTRDLDRLETKHQQDVERRAKQTSAAEKKLHKEITLKQENDRKVYDLNRKKEYKANKERWKRELSMDESTPKRQRDLTLQSQKDNLKQHEAQEEQRMLQAQKQYIELEMRKFKRKRMIMQHEHEDQQLRDELGKKEQQLQQAHAMLLKHHEKTQELEYRQQKSVHQLREEQINKQHDTELHNQKDYMDRIKKELVRKHAVELRQQPKSLKQKELQIRKQFRETCKTQTKQYKRYKAQVLQTTPKEQQKEVIKQLKEEKHRKLTLLGEQYEQSIADMFQSQSYKLDESQVIECQRTHEQLEYELEMLTAYQNKNKKQAQEQRDRERRELENRVSVRRGLLENKMDAELQQFNQERAERLRMKHEKHTKELEAFDNESIALGFSTLSLIEVSREAYADEEGSLSGSMISLAHSNSSTSFPAGSL |

Reference: PMC10761881
